Structures can show the parent of a compound that is named as a salt. The list shows a part of the results. Repeats in this data set agree poorly, so a single value says little.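 In a drug-repurposing library screen, luminescence reads luciferase driven by eight TEAD-binding elements, stably integrated into human kidney-derived cells. Compounds scoring over five robust Z scores above the plate mean are called hits.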
Tested on: HEK293A TEAD-LUC reporter
Test: TEAD-luciferase reporter activity (YAP activation), robust Z score vs plate; higher = stronger YAP/TEAD activation
Conditions: 24 h

SMILES	TEAD-luciferase reporter activity (compound concentration: 200 nM)	TEAD-luciferase reporter activity (compound concentration: 2 uM)	TEAD-luciferase reporter activity (compound concentration: 10 uM)
Clc1ccc(OCCO/C(=C/n2ccnc2)c2ccc(Cl)cc2Cl)cc1	inactive: -1.14	inactive: -1.68	inactive: 4.3
CN(C)CCCOc1ccc2[nH]nc(S(=O)(=O)c3cccc4ccccc34)c2c1	inactive: 0.0489	inactive: -1.53	inactive: -0.651
CC(C)NCCN(C(C)C)S(=O)(=O)c1ccc(NS(C)(=O)=O)cc1	inactive: -0.566	inactive: 1.23	–
NC[C@H]1O[C@H](O[C@H]2[C@H](O)[C@@H](O[C@H]3O[C@H](CO)[C@@H](O)[C@H](N)[C@H]3O)[C@H](N)C[C@@H]2N)[C@H](N)C[C@@H]1O [Tobramycin]	inactive: 2.85	inactive: -0.52	inactive: 0.995
COc1ccc(C(C)(C)NC(=O)[C@H]2CC[C@H]3[C@@H]4CC[C@H]5NC(=O)C=C[C@]5(C)[C@H]4CC[C@]23C)cc1 [Lapisteride]	inactive: -0.337	inactive: -0.605	inactive: 0.533
O=C1NCc2ccccc2CC12CCCCN2Cc1ccc(F)cc1 (stereo unspecified)	inactive: -2.29	–	inactive: 1.49
N#Cc1ccc2ccc(=O)n(CCN3CC[C@H](NCc4cc5c(cn4)OCCO5)[C@H](F)C3)c2c1	inactive: -0.916	inactive: 0.877	inactive: -0.368
O=C1C(O)=C([C@H]2CC[C@H](c3ccc(Cl)cc3)CC2)C(=O)c2ccccc21 [atovaquone]	inactive: -0.652	inactive: 1.26	inactive: -1.05
CCOC(=O)CCC(C)(c1ccc(OCc2ccc3ccccc3n2)cc1)c1ccc(OCc2ccc3ccccc3n2)cc1	inactive: -0.806	inactive: -0.139	inactive: 0.349
Oc1c(I)cc(Cl)c2cccnc12 [iodochlorhydroxyquin]	active: 6.31	inactive: -1.48	inactive: 2.36
O[C@@H]1C[C@H](Oc2nc(N3CCNCC3)nc3ccccc23)C[C@@H]1O	inactive: -0.00948	inactive: -0.978	inactive: 0.134
COc1cc(CN2CCN(c3ccc(F)cc3)CC2)cc(OC)c1OC	inactive: -1.21	inactive: -0.0291	active: 5.1
COc1ccc2c(c1)CCN=C2Cc1ccc(OC)c(OC)c1	inactive: 2.73	inactive: -1.05	inactive: 0.359
CN(CCNCc1c(O)c(Br)cc2c1CCC2(C)C)CCNC(=O)c1nc(Cl)c(N)nc1N	inactive: 1.61	inactive: -0.922	inactive: 3.34
O=C1c2ccccc2-c2c1c1ccccc1c(=O)n2Cc1ccc2c(c1)OCO2	inactive: -0.899	inactive: -0.939	inactive: 4.16
Nc1nc(N)c2nc(CNc3ccc(C(=O)N[C@H](CCCNC(=O)c4ccccc4C(=O)O)C(=O)O)cc3)cnc2n1	inactive: -1.67	active: 5.44	inactive: 0.454
CN(C)CCCC1(c2ccc(F)cc2)OCc2cc(C#N)ccc21 (stereo unspecified) [Citalopram]	inactive: -0.921	–	inactive: 4.09
CN(C)CCCC1(c2ccc(F)cc2)OCc2cc(C#N)ccc21 (stereo unspecified) [citalopram hydrobromide]	–	inactive: -2	–
CC1(C)[C@H]2CC[C@]1(C)[C@@H](O)[C@H]2O [2,3-cis/exo-Camphanediol]	inactive: 2.41	inactive: -2.38	inactive: -0.281
COc1ccc2cc1Oc1ccc(cc1)C[C@H]1c3cc(c(OC)cc3CCN1C)Oc1c(OC)c(OC)c(Br)c3c1[C@H](C2)N(C)CC3 [5-Bromotetrandrine]	inactive: 0.0282	inactive: 0.17	inactive: 2.2
C1CCN2C[C@@H]3C[C@@H](CN4CCCC[C@@H]34)[C@H]2C1	inactive: -1.4	–	inactive: -0.101
C1CCN2C[C@@H]3C[C@@H](CN4CCCC[C@@H]34)[C@H]2C1 [Sparteine sulfate]	–	inactive: -1.14	–
CC(=O)OCC1=C(C(=O)O)N2C(=O)[C@@H](NC(=O)c3c(-c4ccccc4Cl)noc3C)[C@H]2SC1	inactive: -1.57	inactive: -0.181	inactive: -2.37
CC(N)C(O)c1cccc(O)c1 (stereo unspecified) [Metaraminol]	inactive: -0.245	inactive: -0.95	inactive: -1.08
CC(C)N1CCN(c2ccc(N3CCN(c4ccc(OC[C@H]5OC[C@@](Cn6cncn6)(c6ccc(F)cc6F)O5)cc4)CC3)cc2)C1=O	inactive: -0.19	inactive: -0.598	active: 5.26
O=C(C=CC=Cc1ccc2c(c1)OCO2)N1CCCCC1 [Piperine]	–	inactive: 4.03	–
S=C(NCCc1ccccn1)Nc1ccc(Br)cn1	inactive: -0.567	inactive: -1.75	inactive: -0.0386

Record cards, as listed above. Values in the order: TEAD-luciferase reporter activity (compound concentration: 200 nM) | TEAD-luciferase reporter activity (compound concentration: 2 uM) | TEAD-luciferase reporter activity (compound concentration: 10 uM)
Oc1c(I)cc(Cl)c2cccnc12 [iodochlorhydroxyquin] reads active: 6.31 | inactive: -1.48 | inactive: 2.36
CC(C)NCCN(C(C)C)S(=O)(=O)c1ccc(NS(C)(=O)=O)cc1 reads inactive: -0.566 | inactive: 1.23 | –
